PubChem BioAssay AID1224828 | NIAID, 2016
The whole screen tested about 17,000 reagents; this is a part drawn at random. Over the whole deposit, 762 (4.5%) were called active. 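Active calls include both raised and lowered p65 entry, mostly lowered; wells with fewer than 50 cells lack a z-score.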 Raw values vary from plate to plate and are shown uncorrected. The numbers tell different reagents against one gene apart.

Aim: 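Find genes required for NF-kappaB p65 moving into the nucleus after LPS in mouse macrophages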 (primary screen)
Cells: mouse RAW264.7 G9 macrophage reporter cells (GFP-p65, Tnf promoter-mCherry)
Knock-down reagent: siRNA pool against mouse genes, 100 nM
Time to read-out: 2 days siRNA transfection, then 40 min LPS before fixation
Challenge: LPS (Salmonella minnesota R595) at 10 ng/ml
Measurement: 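Microscopy ratio of nuclear to perinuclear-ring GFP-p65 signal, scaled to the plate median; gene score is the average of two replicate robust z-scores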
Scale: p65 translocation robust z-score: higher = more nuclear NF-kappaB p65 after LPS than the plate median; nuclear/cytoplasmic p65 ratio: higher = more nuclear NF-kappaB p65
Rule for the call: 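Active if robust z is above 3.3 (negative regulators) or below -1.56, the Tlr4 control median (positive regulators); activity score 50 or more; control wells not called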
Meaning of the calls: active = hit (p65 shift raised or lowered); inactive = no clear change

Knock-down of B3galt2 resulted in: p65 translocation robust z-score 0.26; nuclear/cytoplasmic p65 ratio, rep 1 = 1.55; nuclear/cytoplasmic p65 ratio, rep 2 = 1.64; low cell count flag enough cells to score; inactive.
Silencing of Disp2 gave: p65 translocation robust z-score 3.52; nuclear/cytoplasmic p65 ratio, rep 1 = 1.91; nuclear/cytoplasmic p65 ratio, rep 2 = 1.83; low cell count flag enough cells to score; active.
Depletion of Spag7 resulted in: nuclear/cytoplasmic p65 ratio, rep 1 = 1.28; nuclear/cytoplasmic p65 ratio, rep 2 = 1.08; low cell count flag fewer than 50 cells per well; well left out of scoring; inactive.
After knock-down of Speer4d, the record shows p65 translocation robust z-score -0.57; nuclear/cytoplasmic p65 ratio, rep 1 = 1.34; nuclear/cytoplasmic p65 ratio, rep 2 = 1.34; low cell count flag enough cells to score; inactive.
For Epas1, the entry reads p65 translocation robust z-score 0.09; nuclear/cytoplasmic p65 ratio, rep 1 = 1.49; nuclear/cytoplasmic p65 ratio, rep 2 = 1.37; low cell count flag enough cells to score; inactive.
Krt2 gave p65 translocation robust z-score -0.45; nuclear/cytoplasmic p65 ratio, rep 1 = 1.41; nuclear/cytoplasmic p65 ratio, rep 2 = 1.33; low cell count flag enough cells to score; inactive.
For Herpud1, the entry reads p65 translocation robust z-score 0.89; nuclear/cytoplasmic p65 ratio, rep 1 = 1.58; nuclear/cytoplasmic p65 ratio, rep 2 = 1.46; low cell count flag enough cells to score; inactive.
For Wfs1, the values are p65 translocation robust z-score -0.21; nuclear/cytoplasmic p65 ratio, rep 1 = 1.55; nuclear/cytoplasmic p65 ratio, rep 2 = 1.51; low cell count flag enough cells to score; inactive.
Depletion of Cdh4 came out at: p65 translocation robust z-score -0.23; nuclear/cytoplasmic p65 ratio, rep 1 = 1.63; nuclear/cytoplasmic p65 ratio, rep 2 = 1.67; low cell count flag enough cells to score; inactive.
Depletion of Vgll1 came out at: p65 translocation robust z-score 1.31; nuclear/cytoplasmic p65 ratio, rep 1 = 1.45; nuclear/cytoplasmic p65 ratio, rep 2 = 1.37; low cell count flag enough cells to score; inactive.
After knock-down of Zfp296, the screen gave p65 translocation robust z-score -0.11; nuclear/cytoplasmic p65 ratio, rep 1 = 1.35; nuclear/cytoplasmic p65 ratio, rep 2 = 1.28; low cell count flag enough cells to score; inactive.
Against Fezf2, the values are p65 translocation robust z-score -0.16; nuclear/cytoplasmic p65 ratio, rep 1 = 1.46; nuclear/cytoplasmic p65 ratio, rep 2 = 1.18; low cell count flag enough cells to score; inactive.
Against Atf7ip #1 the deposit lists p65 translocation robust z-score 0.36; nuclear/cytoplasmic p65 ratio, rep 1 = 1.67; nuclear/cytoplasmic p65 ratio, rep 2 = 1.66; low cell count flag enough cells to score; inactive.
For Atf7ip #2 the deposit lists p65 translocation robust z-score -0.94; nuclear/cytoplasmic p65 ratio, rep 1 = 1.13; nuclear/cytoplasmic p65 ratio, rep 2 = 1.34; low cell count flag enough cells to score; inactive.
Gng11 gave p65 translocation robust z-score 0.06; nuclear/cytoplasmic p65 ratio, rep 1 = 1.52; nuclear/cytoplasmic p65 ratio, rep 2 = 1.59; low cell count flag enough cells to score; inactive.
With knock-down of Mrpl23, the record shows p65 translocation robust z-score 0.06; nuclear/cytoplasmic p65 ratio, rep 1 = 1.88; nuclear/cytoplasmic p65 ratio, rep 2 = 1.53; low cell count flag enough cells to score; inactive.
Arhgap22 scored p65 translocation robust z-score 0.51; nuclear/cytoplasmic p65 ratio, rep 1 = 1.59; nuclear/cytoplasmic p65 ratio, rep 2 = 1.67; low cell count flag enough cells to score; inactive.
Against C1galt1, the entry reads p65 translocation robust z-score 1.16; nuclear/cytoplasmic p65 ratio, rep 1 = 1.62; nuclear/cytoplasmic p65 ratio, rep 2 = 1.65; low cell count flag enough cells to score; inactive.
Depletion of Nf2 resulted in: p65 translocation robust z-score 0; nuclear/cytoplasmic p65 ratio, rep 1 = 1.37; nuclear/cytoplasmic p65 ratio, rep 2 = 1.41; low cell count flag enough cells to score; inactive.
With knock-down of Adamts18, the screen gave p65 translocation robust z-score -0.68; nuclear/cytoplasmic p65 ratio, rep 1 = 1.55; nuclear/cytoplasmic p65 ratio, rep 2 = 1.48; low cell count flag enough cells to score; inactive.
After knock-down of Fam3c the results were p65 translocation robust z-score 1.34; nuclear/cytoplasmic p65 ratio, rep 1 = 1.74; nuclear/cytoplasmic p65 ratio, rep 2 = 1.77; low cell count flag enough cells to score; inactive.

In a second layout: results already given
| gene | reagent | p65 translocation robust z-score | nuclear/cytoplasmic p65 ratio, rep 1 | nuclear/cytoplasmic p65 ratio, rep 2 | low cell count flag | Outcome |
| --- | --- | --- | --- | --- | --- | --- |
| Gng11 | 1 | 0.06 | 1.52 | 1.59 | enough cells to score | inactive |
| Mrpl23 | 1 | 0.06 | 1.88 | 1.53 | enough cells to score | inactive |
| Arhgap22 | 1 | 0.51 | 1.59 | 1.67 | enough cells to score | inactive |
